Results published in EP0983275B1, “NOVEL TRIPTOLIDE DERIVATIVES USEFUL IN THE TREATMENT OF AUTOIMMUNE DISEASES” (priority 1997, dated 1998).

These molecules were tested on IL-2 production (assay: Interleukin-2 assay (IL-2 production by ELISA after PHA/TPA stimulation)). Conditions: ratio of cell viability/IL-2 inhibition.
Assay type: cell-based, human
Protocol: Jurkat E6-1 cell line (ATCC), a human leukemic T cell line or lymphocytes prepared from fresh human blood, are grown in complete culture medium consisting of RPMI-1640 (Mediatech) supplemented with 10% v/v fetal bovine serum (HyClone, Logen, Vermont), penicillin (100 units/mL), streptomycin ([…]), and 2mM L-glutamine (GIBCO, Grand Island, New York). The cells are grown to a concentration of between 1.2 to 1.8 X 10^6 cells/mL before use. The cells are then centrifuged at low speed and resuspended to a concentration of 1.25 X 10^6 cells/mL in fresh medium.
The compounds to be tested are dissolved in DMSO, and water is added to make a 50% DMSO/water solution. The compounds are then diluted in sterile water such that the DMSO concentrations are less then 0.05%. The cells at a concentration of 1.25 X 10^6 cells/mL are stimulated with phytohemagglutinin 10 µg/mL (PHA) and 10^-8 M phorbol ester (12-O-tetradecanoylphorbol 13-acetate: TPA), (Sigma, St. Louis, Missouri). The compounds are then added and the cells are plated in flat-bottom tissue culture plates (Falcon, Lincoln Park, New Jersey), with 250,000 cells/well. Plates are then incubated at 37°C in a 5% CO2 atmosphere.
After incubation (16-24 hours), the cells are assayed for IL-2 production and cell viability (MTT). IL-2 production is assayed utilizing a solid phase ELISA immunoassay, sold in kit form by R&D Systems, Inc., Minneapolis, Minnesota.
Work on CC(C)C12OC1C1OC13C1(C)CCC4=C(COC4=O)C1CCC3(O)C2O (stereo not drawn) [Example 1, [5aR-(5aα,6α,6aα,7aα,7bβ,8aS*,8bα)]-3,3b,4,5,5a,6,6a,7a,7b,8b,9,10-dodecahydro-5a,6-dihydroxy-8b-methyl-6a-(1-methylethyl)-1H-bisoxireno[4b,5:6,7]phenanthro[1,2-c]furan-1-one] yielded an MTT/IL-2 of 8 to 14.
Work on CC(C)[C@]12O[C@H]1[C@@H]1O[C@]13[C@]1(O[C@H]1C[C@H]1C4=C(CC[C@@]13C)C(=O)OC4)[C@@H]2O [Triptolide] yielded an MTT/IL-2 of 2 to 4.
Molecule “[1S-(1α,2β,3α,3aβ,4aR*,4bα,11aα)]-3-chloro-1,2,3,3a,4b,5,6,9,9b,10,11,11a-dodecahydro-1,2,11a-trihydroxy-4b-methyl-2-(1-methylethyl)-7H-oxireno[4b,5]phenanthro[1,2-c]furan-7-one [Example 2]” has an MTT/IL-2 of 9.
